From PubChem BioAssay AID540256 (National Center for Advancing Translational Sciences (NCATS), 2011)
About 3,700 (1.2%) of roughly 300,000 compounds were called active. This list was built around the results that the source calls inconclusive (neither active nor inactive); the mix of calls is not that of the screen. The call rests on the fitted dose curve; tested in HEK293 cells. A potency beside an inconclusive call is a rough fit, not a confirmed value.

Experiment: qHTS for Inhibitors of binding or entry into cells for Lassa Virus; further: nearly all actives have a fitted effect of over 50% in size
Conditions: Lassa virus pseudotype entry inhibition, cell reporter; activity change, negative = inhibition: at 37.9 µM (top of the series) unless noted
On the % scale 0 is the no-effect control and ±100 the full control effect; potency means the concentration at half of the fitted maximal effect.

Compound	Potency	activity change, negative = inhibition
CCn1nnnc1SCC(=O)Nc1cc(C)on1	inactive	
C=CCn1cc(/C=N/Nc2nc3ccccc3[nH]2)c2ccccc21	active: 4.47 µM	
CCn1cc(C(=O)NCCCN(CC(C)C)CC(C)C)c(=O)c2cc(S(=O)(=O)N(C)C3CCCCC3)ccc21	inconclusive: 2 µM [activator, full curve, poor fit]	
Cc1cc(Cl)ccc1Oc1nccc(N(C)C)c1C#N	inconclusive: 20.6 µM [inhibitor, partial curve]	
COCCNC(=O)c1ccc(C)c(S(=O)(=O)Nc2ccc(C)cc2)c1	inactive	
COc1cc2oc(=O)c(CC(=O)N3CCCCC3)c(C)c2cc1OC	inactive	
CN1C(=O)c2ccccc2Sc2ccc(NC(=O)COc3ccccc3)cc21	inconclusive: 17.8 µM [inhibitor, partial curve, poor fit]	
O=c1c2nncn2c2cc(C(F)(F)F)ccc2n1CCNc1ncc(C(F)(F)F)cc1Cl	inconclusive: 1.58 µM [inhibitor, partial curve, poor fit]	
CC(CN1CCN(C)CC1)OC(=O)c1ccccc1 (stereo unspecified)	inactive	
COc1ccccc1N1C(=O)NC(=O)/C(=C\c2cnn(-c3ccccc3)c2)C1=O	inactive	
O=C(COC(=O)Cn1nnc(-c2ccccc2)n1)Nc1cc(F)ccc1F	inactive	
COCCN(CC(=O)Nc1cccc(C)c1C)C(=O)c1cc2ccccc2cc1OC	inconclusive: 25.1 µM [inhibitor, single point]	
CCOC(=O)CSC1=C(C#N)C(c2sccc2C)CC(=O)N1 (stereo unspecified)	inconclusive: 1.46 µM [inhibitor, full curve, poor fit]	
Cc1ccc(S(=O)(=O)c2nc(-c3ccccc3Cl)oc2N2CCCCCC2)cc1	inconclusive: 35.5 µM [inhibitor, single point]	
COc1ccc(C(=O)N2CCN(c3ccccc3)CC2)cc1S(=O)(=O)N1CCOCC1	inconclusive: 0.562 µM [activator, single point]	
C=CCOc1ccc2ccccc2c1CNCCCN1CCOCC1	inconclusive: 35.5 µM [inhibitor, single point]	
CCn1c(=O)n(CC)c2cc(S(=O)(=O)N3CCC(c4ccccc4)CC3)ccc21	inconclusive: 8.2 µM [inhibitor, partial curve]	
Cc1cc(C)c(NC(=O)CSc2nc(COc3ccccc3)nc3ccccc23)c(C)c1	inconclusive: 29.1 µM [inhibitor, single point]	
CCOC(=O)c1cc(-c2ccc3c(c2)OCCO3)n[nH]1	inconclusive: 5.62 µM [inhibitor, full curve, poor fit]	
COc1ccc(-c2cc(C(=O)Nc3ccn(Cc4ccc(C)cc4)n3)no2)cc1OC	inconclusive: 5.62 µM [inhibitor, single point]	
CC(C)OCCCNC(=O)c1c(N)n(Cc2cccs2)c2nc3ccccc3nc12	inconclusive: 35.5 µM [inhibitor, single point]	
CSc1ccccc1OCc1cc(C(=O)N2CCN(c3ccccc3)CC2C)no1 (stereo unspecified)	inconclusive: 1.41 µM [activator, partial curve]	
CSc1ccccc1-n1nnnc1SCC(=O)NCc1cccs1	inconclusive: 35.5 µM [inhibitor, single point]	
N#CC1=C2SCC(O)(c3ccccc3)N2C(=O)CC1c1ccccc1 (stereo unspecified)	inconclusive: 1 µM [inhibitor, full curve, poor fit]	

Looked up above:
Potency with `Cc1cc(Cl)ccc1Oc1nccc(N(C)C)c1C#N` is entered as inconclusive: 20.6 µM [inhibitor, partial curve]
Potency with `CN1C(=O)c2ccccc2Sc2ccc(NC(=O)COc3ccccc3)cc21` is entered as inconclusive: 17.8 µM [inhibitor, partial curve, poor fit]
Potency with `COc1ccc(C(=O)N2CCN(c3ccccc3)CC2)cc1S(=O)(=O)N1CCOCC1` is entered as inconclusive: 0.562 µM [activator, single point]
Potency with `COCCNC(=O)c1ccc(C)c(S(=O)(=O)Nc2ccc(C)cc2)c1` is entered as inactive

Next records

Compound	Potency	activity change, negative = inhibition
CCCOP(=O)(c1ccc(N(C)C)cc1)C(O)c1ccc(Cl)cc1Cl (stereo unspecified)	inconclusive: 5.62 µM [activator, single point]	
N#Cc1ccc(N=c2ssnc2Cl)cc1	inactive	
COc1cc(/C=C/C(=O)OCC(=O)N2CC3(C)CC2CC(C)(C)C3)ccc1O (stereo unspecified)	inconclusive: 35.5 µM [inhibitor, single point]	
N#CC(C#N)=C(Nc1ccc(F)cc1)SCc1cccc(F)c1	active: 12.6 µM	
COCCNC(=O)c1ccc(-n2c(-c3ccccc3)cc3c2CCCCC3)cc1	inconclusive: 1.41 µM [inhibitor, full curve, poor fit]	
Cc1cc(Cl)ccc1OCC(=O)Nc1nc(-c2cccs2)cs1	inconclusive: 1 µM [inhibitor, single point]	
COc1cc(/C=C2\CCC/C(=C\c3ccc(O)c(OC)c3)C2=O)ccc1O	inconclusive: 4.47 µM [inhibitor, full curve, poor fit]	
CCN(C(=O)CN1C(=O)NC2(CCc3ccccc32)C1=O)C1CCCCC1 (stereo unspecified)	inactive	
CCC(CC)NC(=O)c1cc([N+](=O)[O-])ccc1N1CCOCC1	inactive	
CN(C1CCCCC1)S(=O)(=O)c1cc2c3c(c1)CCN3C(=O)CC2	inactive	
Cc1cccc(NC(=O)c2sc3nc(-c4ccc(F)cc4)cn3c2C)n1	inactive	
CN(Cc1nccn1C)C(=O)C1CCC(=O)N(CCc2ccc(Cl)cc2)C1 (stereo unspecified)	inactive	
Cc1ccc(N(Cc2cc3ccccc3[nH]c2=O)C(=O)c2ccco2)c(C)c1	inconclusive: 8.91 µM [inhibitor, partial curve]	
COc1cccc(C(=O)Nc2ccc(-c3nc4ccccc4s3)cc2Cl)c1	inactive	
ONC(=Nc1ccccc1)c1ccc(Cl)cc1	inconclusive: 18.3 µM [inhibitor, single point]	
COc1cccc(-c2cccc(NC(=O)C3CCN(Cc4cnn(C)c4)CC3)c2)c1	inactive	
O=C(OCc1nc2ccccc2[n+]([O-])c1C(=O)c1ccccc1)c1ccco1	inconclusive: 0.631 µM [activator, partial curve, poor fit]	
Cn1cc([N+](=O)[O-])c(C(=O)Nc2ccn(C34CC5CC(CC(C5)C3)C4)n2)n1	inactive	
COc1ccc(/C=N/N(C)C2=NS(=O)(=O)c3ccccc32)cc1	inactive	
CCCC(=O)N(c1ccc2oc(C)c(C(C)=O)c2c1)S(=O)(=O)c1ccc(C)cc1	inconclusive: 31.6 µM [inhibitor, single point]	
O=C(CSCC(=O)N1CCCCC1)Nc1nc(-c2ccccc2)c(-c2ccccc2)s1	inconclusive: 8.2 µM [inhibitor, partial curve, poor fit]	
COc1cccc(OC)c1C(=O)N1CCN(Cc2ccncc2)CC1	inconclusive: 4.61 µM [inhibitor, single point]	
Cc1cc(Br)c2c(c1)=C(c1sc(N3CCCCCC3)nc1O)C(=O)N=2	inconclusive: 11.2 µM [activator, partial curve, poor fit]	
NC(=O)c1ccccc1NC(=O)c1cccc(C(=O)Nc2ccccc2C(N)=O)n1	inconclusive: 0.562 µM [inhibitor, full curve, poor fit]	

Compound	Potency	activity change, negative = inhibition
Cc1ccccc1CS(=O)(=O)Cc1ccc(C(=O)NCc2ccco2)o1	inactive	
O=c1c2ccccc2sn1-c1ccc(S(=O)(=O)N2CCCCC2)cc1	inconclusive: 0.651 µM [inhibitor, partial curve, poor fit]	
c1ccc(-c2nc(N3CCOCC3)cc(N3CCOCC3)n2)cc1	inconclusive: 10 µM [inhibitor, single point]	
O=C(NNC(=O)c1ccc([N+](=O)[O-])cc1Cl)c1ccncc1	inconclusive: 16.4 µM [activator, partial curve, poor fit]	
CCCC(=O)NC(c1ccco1)c1cc(Cl)c2cccnc2c1O (stereo unspecified)	inconclusive: 11.2 µM [inhibitor, partial curve, poor fit]	
CSc1cccc(NC(=O)c2ccccc2N(C)S(C)(=O)=O)c1	inactive	
c1ccc(C2CC(c3ccccc3)n3c(nc4ccccc43)N2)cc1 (stereo unspecified)		inconclusive: 0.99% [activator]
Cn1cc([N+](=O)[O-])c(C(=O)Nc2ccc(C(=O)N3CCCCC3)cc2)n1	inactive	
Cc1ccccc1Cn1nnc2c(=O)[nH]c(C3CCN(C(=O)c4ccccc4)CC3)nc21	inactive	
Cc1c(Cl)cccc1NC(=S)N1CCCN(Cc2ccccc2F)C1	inconclusive: 35.5 µM [inhibitor, single point]	
CCOc1ccc(C2c3[nH]c4ccccc4c3CCN2C(=O)Cc2cccc(OCC)c2OCC)cc1 (stereo unspecified)	inconclusive: 35.5 µM [inhibitor, single point]	
O=C(c1ccc(F)cc1F)N1CCN(c2ccccn2)CC1	inconclusive: 3.16 µM [inhibitor, partial curve, poor fit]	
CC(C)Oc1ccc(CNC(=O)c2ccc(NC(=O)N3CCSc4ncccc43)cc2)cc1	inactive	
O=C(CCc1nnc(CCCCc2ccccc2)o1)NCc1cc(F)ccc1F	inactive	
Cc1ccc(C(=O)c2ccccc2C(=O)O)s1	inactive	
CCOc1cc(/C=N/NC(=O)COc2cccc(C)c2)ccc1OC(=O)c1cccs1	inconclusive: 29.1 µM [inhibitor, single point]	
O=C(CN1CCOCC1)Nc1nc(-c2ccc(Cl)cc2)cs1	active: 7.08 µM	
Cc1cccc(NC(=O)/C=C/c2cccs2)n1	inconclusive: 14.6 µM [inhibitor, single point]	
COc1ccc(C(=O)N(Cc2ccccc2)c2cccc(C)c2)cc1S(=O)(=O)N1CCOCC1	inconclusive: 28.2 µM [inhibitor, single point]	
Cc1ccc(NCc2nnc(SCC(=O)c3ccccc3)n2Cc2ccco2)c(C)c1	inconclusive: 16.4 µM [inhibitor, single point]	
O=[N+]([O-])c1cccc2ccc(/C=C/c3ccc(F)cc3)nc12	inactive	
CCOC(=O)c1c(S(=O)(=O)NCC(=O)Nc2ccc(C)c(Cl)c2)c(C)n(C)c1C	inactive	
Clc1ccc(Nc2nc(-c3cccs3)cs2)nc1	inconclusive: 12.6 µM [inhibitor, single point]	
